Measured values taken from paper PMC6321210.
No constants are given. Whether binding was seen depends on the method and setting. Binding seen in cells or lysates may run through a third protein. Some binding calls cover weakened binding; strength is not graded here.

Protein sequences, listed by entry. Tags and fused reporters are not part of them.
UniProt Q05397: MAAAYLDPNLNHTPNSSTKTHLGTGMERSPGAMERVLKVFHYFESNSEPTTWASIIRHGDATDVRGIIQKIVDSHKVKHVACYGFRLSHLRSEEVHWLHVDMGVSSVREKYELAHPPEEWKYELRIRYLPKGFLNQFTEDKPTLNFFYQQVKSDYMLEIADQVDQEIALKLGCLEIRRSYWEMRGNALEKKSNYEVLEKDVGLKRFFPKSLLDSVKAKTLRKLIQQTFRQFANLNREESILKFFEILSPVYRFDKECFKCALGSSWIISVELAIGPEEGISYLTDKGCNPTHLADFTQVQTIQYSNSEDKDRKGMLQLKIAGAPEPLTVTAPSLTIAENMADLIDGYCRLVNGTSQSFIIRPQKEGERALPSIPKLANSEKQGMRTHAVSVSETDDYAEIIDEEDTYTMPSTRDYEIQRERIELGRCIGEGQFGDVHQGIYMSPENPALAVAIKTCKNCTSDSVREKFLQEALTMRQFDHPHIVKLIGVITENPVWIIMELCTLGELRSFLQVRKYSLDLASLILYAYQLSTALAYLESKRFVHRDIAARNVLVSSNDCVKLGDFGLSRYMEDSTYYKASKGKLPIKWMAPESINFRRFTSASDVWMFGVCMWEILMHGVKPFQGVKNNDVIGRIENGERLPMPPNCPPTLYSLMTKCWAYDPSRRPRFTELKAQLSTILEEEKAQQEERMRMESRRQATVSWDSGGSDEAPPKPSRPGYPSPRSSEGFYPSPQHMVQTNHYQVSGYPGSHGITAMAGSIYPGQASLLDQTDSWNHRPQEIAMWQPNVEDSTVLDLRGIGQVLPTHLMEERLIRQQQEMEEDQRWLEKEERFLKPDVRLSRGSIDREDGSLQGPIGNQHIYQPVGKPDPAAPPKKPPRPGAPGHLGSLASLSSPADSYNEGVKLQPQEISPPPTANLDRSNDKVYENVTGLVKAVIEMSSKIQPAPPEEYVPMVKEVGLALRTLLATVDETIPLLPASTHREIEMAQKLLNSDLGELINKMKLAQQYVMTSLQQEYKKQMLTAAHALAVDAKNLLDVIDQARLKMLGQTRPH

Target: T1, calbindin-D28k (rat) (UniProt P07171)
T1 sequence: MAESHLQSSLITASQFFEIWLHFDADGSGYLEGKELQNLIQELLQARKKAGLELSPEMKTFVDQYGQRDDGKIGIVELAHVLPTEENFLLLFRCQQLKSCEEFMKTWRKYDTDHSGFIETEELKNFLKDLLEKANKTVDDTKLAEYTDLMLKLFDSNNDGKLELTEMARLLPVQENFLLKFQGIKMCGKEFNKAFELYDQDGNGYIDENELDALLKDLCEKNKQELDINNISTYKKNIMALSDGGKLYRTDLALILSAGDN
Assay: co-IP; lysate of SPC111-CB cells (150 mM NaCl, 1% Triton X-100, 50 mM Tris HCl, pH 8.0, protease and phosphatase inhibitors); CB precipitated with 2-4 ug rabbit anti-CB and uMACS protein A MicroBeads, 4 °C, 30 min; Western blot for FAK, septin 7 and paxillin; n = 3

focal adhesion kinase (from UniProt Q05397 1-1052)
binding: binds

B1: septin 7 (protein, UniProt Q16181 1-437)
chain: MSVSARSAAAEERSVNSSTMVAQQKNLEGYVGFANLPNQVYRKSVKRGFEFTLMVVGESGLGKSTLINSLFLTDLYSPEYPGPSHRIKKTVQVEQSKVLIKEGGVQLLLTIVDTPGFGDAVDNSNCWQPVIDYIDSKFEDYLNAESRVNRRQMPDNRVQCCLYFIAPSGHGLKPLDIEFMKRLHEKVNIIPLIAKADTLTPEECQQFKKQIMKEIQEHKIKIYEFPETDDEEENKLVKKIKDRLPLAVVGSNTIIEVNGKRVRGRQYPWGVAEVENGEHCDFTILRNMLIRTHMQDLKDVTNNVHYENYRSRKLAAVTYNGVDNNKNKGQLTKSPLAQMEEERREHVAKMKKMEMEMEQVFEMKVKEKVQKLKDSEAELQRRHEQMKKNLEAQHKELEEKRRQFEDEKANWEAQQRILEQQNSSRTLEKNKKKGKIF
binding: binds
